Measurements reported in PubChem BioAssay AID1259424 (University of Nebraska Medical Center, 2018).
Here is an unselected part of about 14,000 reagents. 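Higher correlation or smaller distance means closer resemblance to KSR1 loss; control wells, including KSR1 knockdowns, recur on many plates.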 Not all columns of the deposit are shown. Not stated in the record: the time to read-out.

Assay: 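Rank knockdowns across the genome by resemblance to the KSR1 depletion profile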 (primary screen)
System: human HCT116 colon cancer cells
Knock-down reagent: siRNA pool against human genes, 50 nM
Measured: 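Log2 levels of six mRNAs (branched-DNA multiplex), adjusted by two reference genes and the non-targeting median, then scored against the average KSR1 knockdown pattern as Pearson r and euclidean distance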
Scale: mean correlation with KSR1 profile: higher = expression change more like KSR1 knockdown; mean distance from KSR1 profile: higher = expression change less like KSR1 knockdown

With knock-down of HLA-DOA, the screen gave mean correlation with KSR1 profile -0.117; mean distance from KSR1 profile 1.53. After knock-down of TMOD2, the record shows mean correlation with KSR1 profile 0.35; mean distance from KSR1 profile 1.84. GREB1L gave mean correlation with KSR1 profile 0.656; mean distance from KSR1 profile 1.24. Against CD1C the deposit lists mean correlation with KSR1 profile -0.0815; mean distance from KSR1 profile 2.84. RGR showed mean correlation with KSR1 profile 0.026; mean distance from KSR1 profile 4.21. Against POLR2B the deposit lists mean correlation with KSR1 profile -0.304; mean distance from KSR1 profile 3.95.

Quoted from above (2 entries):
GREB1L — mean correlation with KSR1 profile = 0.656; mean distance from KSR1 profile = 1.24
CD1C — mean correlation with KSR1 profile = -0.0815; mean distance from KSR1 profile = 2.84

Additional results follow:
With knock-down of SGCE, the screen gave mean correlation with KSR1 profile -0.0865; mean distance from KSR1 profile 2.69. Depletion of RGS18 gave: mean correlation with KSR1 profile -0.349; mean distance from KSR1 profile 1.64. Against UQCRQ, the entry reads mean correlation with KSR1 profile -0.599; mean distance from KSR1 profile 4.51. Against HSD3B7, the entry reads mean correlation with KSR1 profile 0.282; mean distance from KSR1 profile 2.42. ADRA1D showed mean correlation with KSR1 profile 0.82; mean distance from KSR1 profile 1.59. BOLA1 showed mean correlation with KSR1 profile 0.295; mean distance from KSR1 profile 1.06.
